The data set concerns the target T1, GST-NAC1(1-199) (Arabidopsis thaliana) (UniProt Q84TE6).
T1 sequence (looked up): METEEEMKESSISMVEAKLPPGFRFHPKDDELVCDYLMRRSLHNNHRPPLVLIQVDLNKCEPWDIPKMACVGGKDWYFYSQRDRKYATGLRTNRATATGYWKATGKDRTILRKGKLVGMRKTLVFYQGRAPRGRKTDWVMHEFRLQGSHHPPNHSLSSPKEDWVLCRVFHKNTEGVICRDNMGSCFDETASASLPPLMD
In words: competition with a labelled probe. The note with it: unlabeled, LightShift Chemiluminescent EMSA kit (Thermo 20148), manufacturer's instructions, pH and temperature not stated, recombinant protein, residues 1-199, protein details: GST (N-terminal, pGEX-4T-1). Background: Mobility shift assays separate free from complexed probe on a gel.

For at least one entry, the source does not settle the construct or the ends of the probe. At least one verdict rests on a figure or table, not on a statement of the authors. Tags and fusion partners may be left off the protein sequences shown.

Consider “CGTGAAATGCCAGTGGTCTATGATCGGATTCTCTGTTTCCGTTCTCCTTCTTTTTTTGGGCCTTAAATCCGTTT (double strand) [unlabeled competitor P1 (E2Fa-COM-F1/R1)]”, for which, where the note is “against biotin P1”, the binding result is “binds”. With “CGTGTAGAGTTGCGATTTGCAGAGAATTGTGATTCTACAATTGGAGGCAAGATGATGAATGTGTGAACTGATTAGCGTAA (double strand) [unlabeled competitor P2 (E2Fa-COM-F2/R2)]”, the binding result (against biotin P2) is “binds”.

(Values after PMC9603599, “NAC1 Maintains Root Meristem Activity by Repressing the Transcription of E2Fa in Arabidopsis”.)
